# Measured values: US8614247B2, “Methods for preventing, attenuating or treating pulmonary hypertension using a serotonin transporter inhibitor, and pharmaceutical compositions for the treatment thereof” (Institut National de la Sante et de la Recherche Medicale, priority 2003, dated 2013)
# For at least one compound, name, drawing or mass did not settle the structure.
# Experiments:
# [1] = system: human pulmonary artery smooth muscle cells (PA-SMCs); experiment: 5-HT-induced proliferation of human PA-SMCs ([3H]thymidine incorporation); assay type: cell-based; conditions: drug at 10^−5 M, added before 5-HT; cells in 0.2% FCS
# Procedure: Effect of 5-HT on the Proliferation of Human Pulmonary Artery Smooth Muscle Cells (PA-SMCs)
# The methods used for the culture and the characterization of human PA-SMCs have been previously described (Eddahibi, Humbert et al. 2001). In brief, PA-SMCs were obtained from patients undergoing lung resection for cancer. They were seeded in 24-well plates at a density of 5×10^4 cells/well and allowed to adhere in DMEM supplemented with 15% fœtal calf serum (FCS). Cells were then subjected to 48 h of growth arrest in medium containing only 0.2% FCS before being incubated in DMEM supplemented with 0.2% FCS, 0.6 mM of ascorbic acid, 0.1 mM of iproniazid (a monoamine oxidase inhibitor), 0.6 μCi/mL of [^3H]thymidine, with or without 5-HT (10^−8 to 10^−6 M). […] Each of these drugs was added 20 min before 5-HT. After incubation for 24 hours, cells were washed twice with PBS, treated with ice-cold 10% trichloroacetic acid (1 ml/well), and dissolved in 0.1 N NaOH (0.5 ml/well). The incorporated radioactivity was counted and reported as cpm per well.
# [2] = system: mice exposed to chronic hypoxia; assay type: in vivo, mice (C57BL6/J)
# Procedure: All experiments were performed using adult male mice (C57BL6/J, 8 weeks old) in conformity with the institutional guidelines that are in compliance with national and international laws and policies. […] To establish the hypoxic environment, the chamber was flushed with a mixture of room air and nitrogen, and the gas was recirculated. The chamber environment was monitored using an oxygen analyzer (Servomex OA150, Crowborough, England). Carbon dioxide was removed by soda lime granules, and excess humidity was prevented by cooling the recirculation circuit. The chamber temperature was maintained at 22-24° C. The chamber was opened every other day for 1 hour to clean the cages and replenish food and water supplies. Normoxic mice were kept in the same room, with the same light-dark cycle. […] After incision of the abdomen and diaphragm, a 26-gauge needle connected to a pressure transducer was inserted into the right ventricle, and RVSP was recorded immediately. Blood was then sampled for hematocrit determination. […] In each mouse, a total of 50-60 […] vessels accompanying either alveolar ducts or alveoli were analyzed by an observer blinded to treatment. […] The percentage of pulmonary vessels in each muscularization category was determined by dividing the number of vessels in that category by the total number counted in the same experimental group. […]
smiles,measurement,setting,value
CN(C)CCCC1(c2ccc(F)cc2)OCc2cc(C#N)ccc21 (stereo not drawn) [citalopram],5-HT-induced increase in [3H]thymidine incorporation (mitogenic response to 5-HT),[1],completely abolished
same,muscularization of distal pulmonary vessels,"[2]; 2-week chronic hypoxia, daily treatment, vs control mice under similar hypoxic conditions",markedly attenuated
same,hypoxia-induced increase in RVSP,"[2]; 2-week hypoxia (10% O2), daily treatment: citalopram, fluoxetine 10 mg/kg/day, ketanserin 2 mg/kg/day, GR127935 2 or 10 mg/kg/day, vs vehicle",significantly attenuated
